From patent publication US20230406922A1
These are yes or no findings as the source states them, for the method shown. Some binding calls cover weakened binding; strength is not graded here.

Target: cynomolgus monkey CD19 on peripheral blood B cells (cynomolgus monkey (Macaca fascicularis))
Experiment: FACS on cynomolgus monkey PBMC, gated on CD20-positive B cells

B1: FMC63.25-mIgG1 (antibody, V domains shown)
VH: EVTLKESGPVLVKPTETLTLTCTVSGFSLSDYGVSWIRQPPGKALEWLAVIWGSETTYYNSALKSRLTISKDTSKSQVVLTMTNMDPVDTATYYCAKHYYYGGSYAMDYWGQGTTVTVSS
VL: DIQMTQSPSSLSASVGDRVTITCRASQDISKYLNWYQQKPGGAVKLLIYHTSRLHSGVPSRFSGSGSGTDYTLTISSLQPEDFATYYCQQGNTLPYTFGGGTKVEIKR
- binding: binds
